No dose or concentration is given here for some results.
Tested on: B16V mouse melanoma cells
Assay: Calculation of the safety factor SF
Type: cell-based
Conditions: Safety factor SF=(IC50 cytotox)/(EC50 pigmenting effect)

Structure (SMILES)	SF	SF (listed as naringin)
COc1ccc([C@@H]2CC(=O)c3c(O)cc(O[C@@H]4O[C@H](CO[C@@H]5O[C@@H](C)[C@H](O)[C@@H](O)[C@H]5O)[C@@H](O)[C@H](O)[C@H]4O)cc3O2)cc1O [Hesperidin]	1000	–
COc1ccc(C2CC(=O)c3c(O)cc(OC4OC(CO)C(O)C(O)C4OC4OC(C)C(O)C(O)C4O)cc3O2)cc1O (centres unmarked) [Neohesperidin]	4000	–
O=c1c(O)c(-c2ccc(O)c(O)c2)oc2cc(O)cc(O)c12 [Quercetin]	3.2	–
C[C@@H]1O[C@@H](O[C@H]2[C@H](Oc3cc(O)c4c(c3)OC(c3ccc(O)cc3)CC4=O)O[C@H](CO)[C@@H](O)[C@@H]2O)[C@H](O)[C@H](O)[C@H]1O (some centres unmarked) [Naringin]	20000	20,000
